Some of these results come from one statement about several compounds together.
System: c2bbe cells
Test: epithelial barrier formation by transepithelial electrical resistance (TEER)
Type: cell-based
Details: 5 mM, measured daily
Method: Barrier development in Caco-2 cells treated with Veh, BA or […] (5 mM); n=6. Data analyzed by Two-way ANOVA with Dunnett for post hoc correction and presented as mean±S.E.M, *p<0.05 **p<0.01, ***p<0.001, #BA, *MBA compared to veh in two independent experiments.
TEER of C2bbe cells exposed to 5 mM butyrate derivatives.
Therefore, we decided to study the effect of various butyrate derivatives in barrier function; in fact, sodium butyrate is an established pro-barrier factor. We studied epithelial barrier integrity through measurement of transepithelial electrical resistance (TEER), a typical assay for the quantitation of epithelial barrier strength. IEC c2bbe were exposed to butyrate derivatives (all at 5 mM) and TEERS were measured daily.

CCCC(=O)O [Butyrate, Butyric acid]
increase in barrier (TEER): up to 800 Ω*cm^2

— patent US20250235418A1, “Butyrate Analogues and Methods of Use for HIF Stabilization and Treatment of Bowel Disease” (THE REGENTS OF THE UNIVERSITY OF COLORADO, A BODY CORPORATE, priority 2022, published 2025)
